Laboratory results taken from paper PMC11799434.
Results are given in words; binding and its absence hold for the method and conditions named. Some results given as binding are weak or reduced against the parent protein; the word gives no strength.

Sequences of proteins named here, by UniProt entry; tags and fusion partners are left off. Residues count along the entry.
UniProt Q02763, residues 23-748: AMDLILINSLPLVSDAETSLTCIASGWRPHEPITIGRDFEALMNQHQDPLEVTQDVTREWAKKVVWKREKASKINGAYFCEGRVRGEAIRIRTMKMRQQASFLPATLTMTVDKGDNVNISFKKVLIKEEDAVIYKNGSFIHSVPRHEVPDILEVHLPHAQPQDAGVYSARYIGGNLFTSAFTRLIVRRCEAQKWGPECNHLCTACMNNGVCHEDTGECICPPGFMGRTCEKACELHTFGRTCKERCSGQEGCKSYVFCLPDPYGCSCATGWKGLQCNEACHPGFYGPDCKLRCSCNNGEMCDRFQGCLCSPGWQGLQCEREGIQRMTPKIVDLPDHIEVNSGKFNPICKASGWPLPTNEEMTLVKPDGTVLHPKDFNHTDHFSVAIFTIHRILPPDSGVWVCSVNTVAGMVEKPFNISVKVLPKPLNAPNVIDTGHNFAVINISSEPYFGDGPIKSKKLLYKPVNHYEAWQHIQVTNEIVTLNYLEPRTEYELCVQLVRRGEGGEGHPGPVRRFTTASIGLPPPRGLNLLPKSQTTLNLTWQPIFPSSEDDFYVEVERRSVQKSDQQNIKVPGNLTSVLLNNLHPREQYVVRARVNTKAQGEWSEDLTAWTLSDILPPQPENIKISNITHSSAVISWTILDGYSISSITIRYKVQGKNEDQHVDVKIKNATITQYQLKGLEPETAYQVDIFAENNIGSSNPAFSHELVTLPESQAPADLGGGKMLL
UniProt O15123, residues 19-496: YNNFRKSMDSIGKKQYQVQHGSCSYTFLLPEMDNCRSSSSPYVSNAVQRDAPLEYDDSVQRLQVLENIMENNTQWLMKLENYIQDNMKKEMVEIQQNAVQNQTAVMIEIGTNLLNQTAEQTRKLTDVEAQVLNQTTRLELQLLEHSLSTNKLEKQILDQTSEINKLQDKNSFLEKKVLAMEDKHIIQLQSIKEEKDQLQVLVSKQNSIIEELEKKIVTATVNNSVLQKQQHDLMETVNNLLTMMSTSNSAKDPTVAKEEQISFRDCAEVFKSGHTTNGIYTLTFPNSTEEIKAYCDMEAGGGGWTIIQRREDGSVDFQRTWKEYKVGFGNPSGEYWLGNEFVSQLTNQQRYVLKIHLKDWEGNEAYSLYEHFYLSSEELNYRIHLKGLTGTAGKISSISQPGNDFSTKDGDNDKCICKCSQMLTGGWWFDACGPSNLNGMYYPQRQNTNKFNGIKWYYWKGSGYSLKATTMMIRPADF

Target: extracellular domain of human Tie2 fused with Fc (hTie2-ECD-Fc) (human) (UniProt Q02763)
Test: BLI; recombinant hTie2-ECD immobilised on a biosensor; buffer or MT-100 incubated with the biosensor first, then Ang-2 allowed to bind; both purified

binding: binds
Substance: angiopoietin-2 (Ang-2) (from UniProt O15123 19-496) (ligand)
